Measured values reported in PubChem BioAssay AID1347426 (Functional Genomics Laboratory (NCATS/FGL), 2020).
The campaign covered roughly 31,000 sequences. About 1,400 (4.5%) were called active.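 Rule for the calls: active = median seed-adjusted z-score above 1 or below -1; inactive = the rest.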 The list shows a part of the results.

assay: Novel Modifiers of Survival Motor Neuron (SMN) Protein: Gene Identification via Genome-wide siRNA Screen; details: HEK293T SMN2-luciferase reporter, siRNA knockdown, 72 h; actives lie on both sides;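 note: luminescence tracks full-length SMN protein made from the SMN2 reporter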
Outline: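 Steps: spot 1 pmol siRNA, add Lipofectamine RNAiMax in serum-free DMEM, seed HEK293T SMN2–luciferase reporter cells; incubate 72 h at 37 °C; add ONE-Glo; normalize luminescence to control siRNA, log10, MAD. Candidates: |MAD| > 1.0.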

Row | Sequence | median seed-adjusted z-score
1 | GAAACUUGAUGGCUCCGAATT against OXT | inactive: 0.553
2 | CCUGAGCUGUGCAACCAAUTT against SLC12A8 | inactive: 0.113
3 | CGAGUUUGCUUGGUCAGAATT against SF3B1 | active: -3.65
4 | UUAUCGCAAGUGAUAUUUATT against ZXDB | inactive: 0.186
5 | GCACCAUUCGAAGCUCAGATT against SLC9A1 | inactive: 0
6 | GCUCCAUCCUUAUUCAACATT against ZIK1 | inactive: -0.0627
7 | GACCCAGUCUGAGUGUCUGTT against ZNF655 | inactive: -0.156
8 | CCGACCAUCGAAGACUUUUTT against RAP2B | inactive: -0.22
9 | CGGUAGCUGCUGACUCUAUTT against AKAP6 | inactive: -0.0978
10 | GCACGGUCACUGUUAGAUATT against FLNB | inactive: 0.243
11 | GAAGUGACGUGGACCUGGATT against ELF3 | inactive: 0.43
12 | GCAGAACUGUAUCAAGGAATT against NDUFB10 | inactive: -0.39
13 | GCAGUGUGACGGUAGCUUUTT against ZNF79 | inactive: -0.351
14 | AACCAAUGUUGGACAACUATT against ZNF99 | inactive: 0.0778
15 | GGCAGUGGUUUUGACAACATT against CTBP1 | inactive: 0.105
16 | CGAUGUCUACGGCUUCUCATT against PEF1 | inactive: 0.651
17 | CUACUAGCAUAUCCACAAATT against POLR3B | inactive: -0.151
18 | CACCUACAUCACCUAUUAATT against PPP1R12A | inactive: -0.103
19 | GGAGCUAUUUGACAGCGAATT against PPP2R5E | inactive: 0.421
20 | GGCAUCUACUUGUGAGUAATT against NUP155 | inactive: 0.141
21 | GCACGCGGCUAUACAAUCATT against SLC25A34 | inactive: -0.256
22 | GAGACUGACUGUUAGCACATT against LPAR1 | inactive: 0.514
23 | CGAUACCAGCUGUCGGUUUTT against LONRF1 | inactive: 0.743

Row | Sequence | median seed-adjusted z-score
24 | GCAAGAUCCUCAUCGUGGATT against HDAC4 | inactive: -0.0988
25 | GCAUCAACGUGUGUGGACUTT against WFIKKN1 | inactive: 0
26 | GUCUUAUGGUGCAAACUUUTT against NDUFS4 | inactive: 0.336
27 | CAAGUACUCAGAGACGGAUTT against SCD5 | inactive: -0.167
28 | GGGCCUUUCUUGGACUGAUTT against PHF7 | inactive: 0.425
29 | GCUCCAACAUGGUCUACAATT against POLE | active: -1.55
30 | GGACUACACCUACUGGGUATT against PTPRH | inactive: 0.175
31 | CAAUCUAACUUUUCGGACATT against CLCA2 | inactive: 0.669
32 | GAACCUUCGGGAGAACCUUTT against FKBPL | active: -1.11
33 | CCAAGAGGAGAGUCCUAUATT against ZNF639 | inactive: 0.182
34 | ACAUGUGCUUGACAAGUUUTT against POLR1D | inactive: -0.0409
35 | GCCGCCUACUCAUUCUACATT against NMT2 | inactive: 0.494
36 | GGACUUCGAGUGUGACUAUTT against SORCS3 | inactive: -0.151
37 | GUGGGUACCAUAUCGCUUATT against SMG1 | inactive: -0.106
38 | CACUCUACGUCUUUACGGATT against HHATL | inactive: 0.497
39 | CGGGAGUCAUAACACUAAATT against HIBCH | inactive: 0.0655
40 | AGAUCAGACAGCAACGAUATT against RHD | inactive: 0.496
41 | AGAACUCUCUGAUUGUCAUTT against GPR1 | inactive: 0.0609
42 | GGCCUAUGCUAAUCAUUCUTT against FANCA | inactive: 0.418
43 | GCAACUAUGAUAUUUAUGATT against UGT2B17 | inactive: -0.0203
44 | CAGUGUUAGUACUCGAUAATT against EXT2 | inactive: -0.127
45 | GCAAUAUGUUUAUCCAUAATT against CSE1L | inactive: 0.425
46 | UCAUGUACCUCAGAAGUCATT against CLEC4C | inactive: 0.664

Reprinted: nos. 41 to 45
Row | Sequence | median seed-adjusted z-score
41 | AGAACUCUCUGAUUGUCAUTT against GPR1 | inactive: 0.0609
42 | GGCCUAUGCUAAUCAUUCUTT against FANCA | inactive: 0.418
43 | GCAACUAUGAUAUUUAUGATT against UGT2B17 | inactive: -0.0203
44 | CAGUGUUAGUACUCGAUAATT against EXT2 | inactive: -0.127
45 | GCAAUAUGUUUAUCCAUAATT against CSE1L | inactive: 0.425

Next part.

Row | Sequence | median seed-adjusted z-score
47 | CUACCGAGAUUUUAGAUGATT against POLE | active: -1.55
48 | AGCAGAGGCUUAUCCCUGUTT against RND2 | inactive: -0.0613
49 | CACCUGAGCAGCAAAAGAATT against PACSIN1 | inactive: -0.681
50 | CGAGUGCGCGAGAAACAGATT against COX7A1 | inactive: -0.47
51 | ACAGGGCUCUGGAUAUUGATT against AP3D1 | inactive: 0.213
52 | GCCCAUGGGAAAUACCAGATT against NPR2 | inactive: 0.0712
53 | GCACCAUUGACGUGUCAAATT against POLD2 | inactive: 0.97
54 | GUAGAGUAGUGUUAGAUGATT against IRAK3 | inactive: 0.155
55 | CCGUAGUGCUGAUGAACCATT against TCEA1 | inactive: 0
56 | AGCUCGAUAUCACAGAGAATT against CES7 | inactive: -0.374
57 | GGCUCAUCUUCUACCGGAATT against SHMT2 | inactive: -0.0453
58 | CCGGGUCAUCUAUUCCGAATT against ICAM4 | inactive: -0.338
59 | GCCUGGUACCUCUUAAGAATT against TIAM2 | inactive: -0.0239
60 | AGAACUCGCUCAACAUCAUTT against KCNC1 | inactive: 0.73
61 | CAAGAACUACAGAUUCGUATT against PPP1R13B | inactive: 0.0943
62 | GCCUUACCCAGAAAGGAAATT against ZNF276 | inactive: 0.318
63 | AGCCCAAGCAGAUAUGUAATT against NOTCH4 | inactive: -0.384
64 | GGCUUUACUUCAGGAUAUATT against GBP2 | inactive: -0.263
65 | GAAAUACCCUCACAUGUUATT against LSM2 | active: -1.48
66 | GGACAAUAGAAUACCUAGATT against HADHA | inactive: 0.47
67 | UGAAGCUGGUUGUCCGUUATT against LIN7B | inactive: 0.236
68 | CAGUCUUGAUUCCACUGAATT against PCDHA3 | inactive: 0.311
69 | GCAACGUACGCACUUCACATT against PITX1 | inactive: 0
